{"source": "PubChem BioAssay AID652272, Drosophila RNAi Screening Center | 2013", "purpose": "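Genes whose knock-down decreases or increases Hedgehog reporter output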 (primary screen)", "cells": "Drosophila clone 8 (Cl8) cells", "knock-down reagent": "long dsRNA against Drosophila genes", "measured": "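Firefly light from a Hedgehog-responsive ptc promoter reporter and Renilla reference light, both read on a plate reader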", "direction": "firefly Hh reporter signal: higher = more ptc reporter light; Renilla reference signal: higher = more Renilla control light", "rule for the call": "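Hit when the z-score averaged over two replicates is under -2 or over +3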", "meaning of the calls": "active = hit: reporter lowered or raised; inactive = not a hit", "note": "The deposit covers about 21,000 reagents; shown is an unselected part of those that have a named target and a result. In the full data, 503 (2.4%) got an active call. 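Raw plate light values, not normalised; calls rest on replicate z-scores that were not deposited; hits include reporter decreases as well as increases.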 Reagent sequences are not shown. The record does not give: the amount of reagent, the time to read-out."}
{"predicted target": "tau", "dsRNA": "DRSC14569", "firefly Hh reporter signal, replicate 1": 1.18e5, "firefly Hh reporter signal, replicate 2": 1.01e5, "Renilla reference signal, replicate 1": 2521, "Renilla reference signal, replicate 2": 3607, "activity call": "inactive"}
{"predicted target": "CG13323", "dsRNA": "DRSC06360", "firefly Hh reporter signal, replicate 1": 1.04e5, "firefly Hh reporter signal, replicate 2": 58520, "Renilla reference signal, replicate 1": 2613, "Renilla reference signal, replicate 2": 4584, "activity call": "inactive"}
{"predicted target": "Nup133 (Nucleoporin 133kD)", "dsRNA": "DRSC16150", "firefly Hh reporter signal, replicate 1": 93753, "firefly Hh reporter signal, replicate 2": 88359, "Renilla reference signal, replicate 1": 4935, "Renilla reference signal, replicate 2": 4240, "activity call": "inactive"}
{"predicted target": "Ptpmeg2 (Protein tyrosine phosphatase Meg2)", "dsRNA": "DRSC18277", "firefly Hh reporter signal, replicate 1": 62785, "firefly Hh reporter signal, replicate 2": 1.74e5, "Renilla reference signal, replicate 1": 1853, "Renilla reference signal, replicate 2": 6355, "activity call": "inactive"}
{"predicted target": "Ptpmeg2 (Protein tyrosine phosphatase Meg2)", "dsRNA": "DRSC18278", "firefly Hh reporter signal, replicate 1": 72643, "firefly Hh reporter signal, replicate 2": 1.26e5, "Renilla reference signal, replicate 1": 2055, "Renilla reference signal, replicate 2": 5293, "activity call": "inactive"}
{"predicted target": "Dbp73D (Dead box protein 73D)", "dsRNA": "DRSC11142", "firefly Hh reporter signal, replicate 1": 83430, "firefly Hh reporter signal, replicate 2": 44360, "Renilla reference signal, replicate 1": 4364, "Renilla reference signal, replicate 2": 1858, "activity call": "inactive"}
{"predicted target": "CG15878", "dsRNA": "DRSC08486", "firefly Hh reporter signal, replicate 1": 63714, "firefly Hh reporter signal, replicate 2": 34122, "Renilla reference signal, replicate 1": 1661, "Renilla reference signal, replicate 2": 2936, "activity call": "inactive"}
{"predicted target": "CG45067", "dsRNA": "DRSC08414", "firefly Hh reporter signal, replicate 1": 64442, "firefly Hh reporter signal, replicate 2": 39176, "Renilla reference signal, replicate 1": 1568, "Renilla reference signal, replicate 2": 2986, "activity call": "inactive"}
{"predicted target": "CG7272", "dsRNA": "DRSC10795", "firefly Hh reporter signal, replicate 1": 1.10e5, "Renilla reference signal, replicate 1": 3355, "Renilla reference signal, replicate 2": 2896, "activity call": "inactive"}
{"predicted target": "sob", "dsRNA": "DRSC00838", "firefly Hh reporter signal, replicate 1": 1.22e5, "firefly Hh reporter signal, replicate 2": 41180, "Renilla reference signal, replicate 1": 2849, "Renilla reference signal, replicate 2": 4058, "activity call": "inactive"}
{"predicted target": "Zmynd8 (Zinc finger MYND-type containing 8)", "dsRNA": "DRSC15310", "firefly Hh reporter signal, replicate 1": 1.12e5, "firefly Hh reporter signal, replicate 2": 53920, "Renilla reference signal, replicate 1": 2885, "Renilla reference signal, replicate 2": 1800, "activity call": "inactive"}
{"predicted target": "CG10750", "dsRNA": "DRSC02105", "firefly Hh reporter signal, replicate 1": 84112, "firefly Hh reporter signal, replicate 2": 50464, "Renilla reference signal, replicate 1": 4013, "Renilla reference signal, replicate 2": 2560, "activity call": "inactive"}
{"predicted target": "BNIP3", "dsRNA": "DRSC11761", "firefly Hh reporter signal, replicate 1": 77800, "firefly Hh reporter signal, replicate 2": 87991, "Renilla reference signal, replicate 1": 3037, "Renilla reference signal, replicate 2": 2650, "activity call": "inactive"}
{"predicted target": "CG4404", "dsRNA": "DRSC19897", "firefly Hh reporter signal, replicate 1": 76224, "firefly Hh reporter signal, replicate 2": 1.67e5, "Renilla reference signal, replicate 1": 2002, "Renilla reference signal, replicate 2": 8306, "activity call": "inactive"}
{"predicted target": "IFT52 (Intraflagellar transport 52)", "dsRNA": "DRSC03271", "firefly Hh reporter signal, replicate 1": 1.01e5, "firefly Hh reporter signal, replicate 2": 55091, "Renilla reference signal, replicate 1": 1914, "Renilla reference signal, replicate 2": 5451, "activity call": "inactive"}
{"predicted target": "Cyp4ae1 (Cytochrome P450 4ae1)", "dsRNA": "DRSC18455", "firefly Hh reporter signal, replicate 1": 84277, "firefly Hh reporter signal, replicate 2": 77315, "Renilla reference signal, replicate 1": 2066, "Renilla reference signal, replicate 2": 2429, "activity call": "inactive"}
{"predicted target": "Nplp2 (Neuropeptide-like precursor 2)", "dsRNA": "DRSC09824", "firefly Hh reporter signal, replicate 1": 32314, "firefly Hh reporter signal, replicate 2": 42061, "firefly Hh reporter signal, replicate 3": 39159, "Renilla reference signal, replicate 1": 3579, "Renilla reference signal, replicate 2": 2809, "activity call": "inactive"}
{"predicted target": "CG7182", "dsRNA": "DRSC10780", "firefly Hh reporter signal, replicate 1": 61296, "firefly Hh reporter signal, replicate 2": 1.29e5, "Renilla reference signal, replicate 1": 3047, "Renilla reference signal, replicate 2": 4758, "activity call": "inactive"}
{"predicted target": "Dscam3 (Down syndrome cell adhesion molecule 3)", "dsRNA": "DRSC14525", "firefly Hh reporter signal, replicate 1": 73677, "firefly Hh reporter signal, replicate 2": 89245, "Renilla reference signal, replicate 1": 1909, "Renilla reference signal, replicate 2": 2032, "activity call": "inactive"}
{"predicted target": "Dscam3 (Down syndrome cell adhesion molecule 3)", "dsRNA": "DRSC16376", "firefly Hh reporter signal, replicate 1": 79892, "firefly Hh reporter signal, replicate 2": 96240, "Renilla reference signal, replicate 1": 2332, "Renilla reference signal, replicate 2": 2777, "activity call": "inactive"}
{"predicted target": "Rbp4 (RNA-binding protein 4)", "dsRNA": "DRSC16818", "firefly Hh reporter signal, replicate 1": 68338, "firefly Hh reporter signal, replicate 2": 81429, "Renilla reference signal, replicate 1": 1514, "Renilla reference signal, replicate 2": 1906, "activity call": "inactive"}
{"predicted target": "CG18371", "dsRNA": "DRSC06733", "firefly Hh reporter signal, replicate 1": 82251, "firefly Hh reporter signal, replicate 2": 57363, "Renilla reference signal, replicate 1": 2288, "Renilla reference signal, replicate 2": 3858, "activity call": "inactive"}
{"predicted target": "Bacc (Bacchus)", "dsRNA": "DRSC00735", "firefly Hh reporter signal, replicate 1": 1.17e5, "firefly Hh reporter signal, replicate 2": 1.15e5, "Renilla reference signal, replicate 1": 2785, "Renilla reference signal, replicate 2": 3024, "activity call": "inactive"}
{"predicted target": "CG42789", "dsRNA": "DRSC13793", "firefly Hh reporter signal, replicate 1": 7.52e5, "firefly Hh reporter signal, replicate 2": 1.25e5, "Renilla reference signal, replicate 1": 5124, "Renilla reference signal, replicate 2": 5124, "activity call": "inactive"}
{"predicted target": "Ubx (Ultrabithorax)", "dsRNA": "DRSC16891", "firefly Hh reporter signal, replicate 1": 1.45e5, "firefly Hh reporter signal, replicate 2": 5.31e5, "firefly Hh reporter signal, replicate 3": 1.24e5, "Renilla reference signal, replicate 1": 4845, "Renilla reference signal, replicate 2": 3253, "activity call": "inactive"}
{"predicted target": "CG8420", "dsRNA": "DRSC16418", "firefly Hh reporter signal, replicate 1": 69987, "firefly Hh reporter signal, replicate 2": 70564, "Renilla reference signal, replicate 1": 2536, "Renilla reference signal, replicate 2": 2428, "activity call": "inactive"}
{"predicted target": "CG6959", "dsRNA": "DRSC16151", "firefly Hh reporter signal, replicate 1": 74507, "firefly Hh reporter signal, replicate 2": 1.10e5, "Renilla reference signal, replicate 1": 2281, "Renilla reference signal, replicate 2": 2992, "activity call": "inactive"}
